Our source for the binding values is patent US20230365651A1.

No constants are given. Whether binding was seen depends on the method and setting. Binding can be weak; no strength is given.

B1: YPKARLAF (SEQ ID NO: 160) (peptide)
peptide: YPKARLAF
B2: DMKYKNRV (SEQ ID NO: 50) (peptide)
peptide: DMKYKNRV
B3: FAFRKEAL (SEQ ID NO: 171) (peptide)
peptide: FAFRKEAL
B4: HVKEKFLL (SEQ ID NO: 156) (peptide)
peptide: HVKEKFLL
B5: … (SEQ ID NO: 170) (peptide)
peptide: YLLEKSRVI
B6: … (SEQ ID NO: 154) (peptide)
peptide: MLRKIAVAA
B7: QAKTHSTL (SEQ ID NO: 162) (peptide)
peptide: QAKTHSTL
B8: … (SEQ ID NO: 157) (peptide)
peptide: EAMKRLSYI
B9: … (SEQ ID NO: 161) (peptide)
peptide: ALKTTTTAL
B10: … (SEQ ID NO: 167) (peptide)
peptide: TSHERLTTL
B11: … (SEQ ID NO: 164) (peptide)
peptide: SIKTKSAEM
B12: … (SEQ ID NO: 48) (peptide)
peptide: DVKKKIKEV
B13: … (SEQ ID NO: 153) (peptide)
peptide: NAMLRKVAV
B14: … (SEQ ID NO: 169) (peptide)
peptide: TSMPRSSAM
B15: … (SEQ ID NO: 47) (peptide)
peptide: MPNLRSVDL
B16: … (SEQ ID NO: 152) (peptide)
peptide: MGSARVAEL
B17: … (SEQ ID NO: 166) (peptide)
peptide: TPKLRETSI
B18: LPKLAGLL (SEQ ID NO: 158) (peptide)
peptide: LPKLAGLL
B19: MAAVKQAL (SEQ ID NO: 150) (peptide)
peptide: MAAVKQAL
B20: … (SEQ ID NO: 49) (peptide)
peptide: LPRLKAFMI
B21: LNKQKVTF (SEQ ID NO: 44) (peptide)
peptide: LNKQKVTF
B22: QGLLRPVF (SEQ ID NO: 163) (peptide)
peptide: QGLLRPVF
B23: … (SEQ ID NO: 172) (peptide)
peptide: KLKERNREL
B24: … (SEQ ID NO: 45) (peptide)
peptide: VGREKKLAL
B25: … (SEQ ID NO: 151) (peptide)
peptide: HLLLKVLAF
B26: MYKMKKPI (SEQ ID NO: 394) (peptide)
peptide: MYKMKKPI
B27: … (SEQ ID NO: 159) (peptide)
peptide: VLKHKLDEL
B28: … (SEQ ID NO: 51) (peptide)
peptide: SLRLKNVQL
B29: … (SEQ ID NO: 43) (peptide)
peptide: ALKARTVTF
B30: … (SEQ ID NO: 46) (peptide)
peptide: DMKKAKEQL
B31: … (SEQ ID NO: 19) (peptide)
peptide: KYVKVFHQF
B32: … (SEQ ID NO: 10) (peptide)
peptide: RYSDSVGRVSF
B33: … (SEQ ID NO: 14) (peptide)
peptide: FYFPTPTVL
B34: … (SEQ ID NO: 12) (peptide)
peptide: KYEKIFEML
B35: … (SEQ ID NO: 11) (peptide)
peptide: SYSDLHYGF
B36: … (SEQ ID NO: 17) (peptide)
peptide: RFTTMLSTF
B37: … (SEQ ID NO: 15) (peptide)
peptide: VYHDDKQPTF
B38: … (SEQ ID NO: 16) (peptide)
peptide: IYSPQFSRL
B39: RYGPVFTV (SEQ ID NO: 77) (peptide)
peptide: RYGPVFTV
B40: … (SEQ ID NO: 18) (peptide)
peptide: KYPVHIYRL
B41: … (SEQ ID NO: 80) (peptide)
peptide: TAYMVSVAAF
B42: … (SEQ ID NO: 13) (peptide)
peptide: VYTFLSSTL
B43: … (SEQ ID NO: 79) (peptide)
peptide: SYNEHWNYL
B44: … (SEQ ID NO: 76) (peptide)
peptide: KYVAELSLL
B45: … (SEQ ID NO: 78) (peptide)
peptide: SFAPRSAVF
B46: … (SEQ ID NO: 229) (peptide)
peptide: ISVPAKTSL
B47: … (SEQ ID NO: 236) (peptide)
peptide: SAIPFSMTL
B48: … (SEQ ID NO: 232) (peptide)
peptide: TISSLTHEL
B49: … (SEQ ID NO: 231) (peptide)
peptide: SVTESTHHL
B50: … (SEQ ID NO: 7) (peptide)
peptide: ALQAFEFRV
B51: ALFKAWAL (SEQ ID NO: 4) (peptide)
peptide: ALFKAWAL
B52: … (SEQ ID NO: 228) (peptide)
peptide: RLWDWVPLA
B53: … (SEQ ID NO: 243) (peptide)
peptide: YASEGVKQV
B54: … (SEQ ID NO: 234) (peptide)
peptide: GVATRVDAI
B55: … (SEQ ID NO: 224) (peptide)
peptide: SLPRFQVTL
B56: … (SEQ ID NO: 219) (peptide)
peptide: PLPRPGAVL
B57: … (SEQ ID NO: 220) (peptide)
peptide: RMTTQLLLL
B58: … (SEQ ID NO: 3) (peptide)
peptide: ALIYNLVGI
B59: FAHHGRSL (SEQ ID NO: 223) (peptide)
peptide: FAHHGRSL
B60: … (SEQ ID NO: 242) (peptide)
peptide: STIPALHEI
B61: … (SEQ ID NO: 241) (peptide)
peptide: RQPNILVHL
B62: … (SEQ ID NO: 8) (peptide)
peptide: YLVTKVVAV
B63: … (SEQ ID NO: 222) (peptide)
peptide: ALMRLIGCPL
B64: … (SEQ ID NO: 9) (peptide)
peptide: VLLAGFKPPL
B65: … (SEQ ID NO: 227) (peptide)
peptide: YTFRYPLSL
B66: … (SEQ ID NO: 5) (peptide)
peptide: RLLDFINVL
B67: … (SEQ ID NO: 6) (peptide)
peptide: SLGKHTVAL
B68: SLLDLYQL (SEQ ID NO: 221) (peptide)
peptide: SLLDLYQL
B69: … (SEQ ID NO: 244) (peptide)
peptide: DTDSSVHVQV

The target of the first test is HLA-B*08:01 (human). Kind of test: pMHC stability, b2m dissociation half-life at 37 C.
On to B1, for which the binding result is “binds”. Turning to B2, the binding result is “binds”. As to B3, the binding entry is recorded as “binds”. In the case of B4, the binding result is listed as “binds”. B5: the binding result is given as “binds”. Turning to B6, the binding result was “binds”.

In the case of B7, the binding entry is listed as “binds”. B8: the binding result is “binds”. For B9, the binding result is “binds”. For the molecule B10, the binding result is “binds”. Same read-out and setting: with B11 the entry was “binds”. On to B12, for which the binding entry is “binds”. In the case of B13, the binding result is “binds”.

B14: the binding result is “binds”. Consider B15, for which the binding entry is “binds”. Turning to B16, the binding result is “binds”. For B17, the binding result is “binds”.

B18: the binding entry is “binds”. Take B19: the binding result was “binds”. In the case of B20, the binding entry is “binds”. Same read-out and setting: the same measure for B21: “binds”; for B22: “binds”. For the molecule B23, the binding entry is given as “binds”. In the case of B24, the binding result is “binds”. Regarding B25, the binding entry was “binds”. Consider B26, for which the binding entry is “binds”. For B27, the binding result was “binds”. Same read-out and setting: with B28 the entry was “binds”. Turning to B29, the binding entry was “binds”. Take B30: the binding entry is reported as “binds”.

The next test deals with HLA-A*24:02 (human). Kind of test: UV peptide exchange, anti-b2m ELISA.
For the molecule B31, the binding entry is “binds”. For the molecule B32, the binding entry is given as “binds”. Turning to B33, the binding result was “binds”. Take B34: the binding result is listed as “binds”. Regarding B35, the binding entry was “binds”. As to B36, the binding result was “binds”.

For the molecule B37, the binding entry is “binds”. As to B38, the binding entry is listed as “binds”. Still for that read-out and setting: with B39 the entry was “binds”; with B40, “binds”. Regarding B41, the binding entry is “binds”.

B42: the binding result was “binds”. As to B43, the binding result is given as “binds”. For B44, the binding result was “binds”. With B45, the binding entry is “binds”.

The target of the next test is HLA-A*02:01 (human). Description: UV peptide exchange, anti-b2m ELISA.
Take B46: the binding entry is recorded as “binds”. As to B47, the binding entry is “binds”. On to B48, for which the binding entry was “binds”. For B49, the binding result is recorded as “binds”.

B50: the binding entry is listed as “binds”. For B51, the binding result is recorded as “binds”.

With B52, the binding entry was “binds”.

Consider B53, for which the binding result is on record as “binds”.

Take B54: the binding entry was “binds”. As for B55, the binding result is on record as “binds”. For B56, the binding entry is given as “binds”. Regarding B57, the binding entry is “binds”.

On to B58, for which the binding result was “binds”. On to B59, for which the binding result is reported as “binds”. On the same count and under the same terms, the same measure for B60: “binds”; for B61: “binds”. Regarding B62, the binding entry is listed as “binds”.

Consider B63, for which the binding result is on record as “binds”. Regarding B64, the binding result is “binds”. On to B65, for which the binding entry was “binds”. As to B66, the binding entry is on record as “binds”.

Regarding B67, the binding entry is on record as “binds”.

Consider B68, for which the binding result is listed as “binds”. B69: the binding result is “binds”.
